Laboratory results from the supplement of paper PMC10849652.
The list shows a part of the results.

Sequences of proteins named here, by UniProt entry; tags and fusion partners are left off. A change or cut given only in a name is not applied to a line headed by its entry.
UniProt Q9UNZ2: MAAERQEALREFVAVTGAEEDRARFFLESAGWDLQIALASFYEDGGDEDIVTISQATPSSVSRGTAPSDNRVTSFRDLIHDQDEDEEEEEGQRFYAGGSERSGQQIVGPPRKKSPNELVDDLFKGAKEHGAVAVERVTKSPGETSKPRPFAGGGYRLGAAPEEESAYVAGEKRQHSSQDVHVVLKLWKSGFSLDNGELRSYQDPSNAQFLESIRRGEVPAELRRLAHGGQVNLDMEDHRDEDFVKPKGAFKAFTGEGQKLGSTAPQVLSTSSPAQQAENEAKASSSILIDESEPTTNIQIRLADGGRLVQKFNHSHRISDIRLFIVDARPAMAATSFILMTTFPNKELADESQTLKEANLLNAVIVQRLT
UniProt Q8IVI9: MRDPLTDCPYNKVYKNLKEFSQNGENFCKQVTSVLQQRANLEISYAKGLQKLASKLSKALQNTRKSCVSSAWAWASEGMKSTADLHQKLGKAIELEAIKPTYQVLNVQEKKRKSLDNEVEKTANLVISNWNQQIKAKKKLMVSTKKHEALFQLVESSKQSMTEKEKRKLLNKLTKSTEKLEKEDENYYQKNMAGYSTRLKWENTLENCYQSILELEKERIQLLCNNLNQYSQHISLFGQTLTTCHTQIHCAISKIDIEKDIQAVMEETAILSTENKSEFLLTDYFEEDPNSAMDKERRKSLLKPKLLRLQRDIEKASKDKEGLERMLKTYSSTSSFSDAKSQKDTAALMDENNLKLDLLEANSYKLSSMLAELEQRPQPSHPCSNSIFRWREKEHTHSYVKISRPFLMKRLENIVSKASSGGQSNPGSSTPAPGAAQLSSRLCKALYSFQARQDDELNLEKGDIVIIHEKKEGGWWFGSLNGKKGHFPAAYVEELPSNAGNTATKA
UniProt P80303: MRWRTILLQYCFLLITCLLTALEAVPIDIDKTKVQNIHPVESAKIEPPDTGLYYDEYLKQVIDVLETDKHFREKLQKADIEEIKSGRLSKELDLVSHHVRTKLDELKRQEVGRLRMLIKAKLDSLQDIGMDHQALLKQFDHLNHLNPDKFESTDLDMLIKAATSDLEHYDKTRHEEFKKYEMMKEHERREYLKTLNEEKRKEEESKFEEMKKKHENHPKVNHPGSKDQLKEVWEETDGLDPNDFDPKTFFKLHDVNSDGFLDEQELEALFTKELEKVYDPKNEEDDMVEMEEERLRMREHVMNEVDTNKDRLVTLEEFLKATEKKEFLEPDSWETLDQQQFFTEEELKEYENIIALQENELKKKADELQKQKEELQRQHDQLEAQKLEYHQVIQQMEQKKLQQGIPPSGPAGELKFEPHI
UniProt Q9BQG2: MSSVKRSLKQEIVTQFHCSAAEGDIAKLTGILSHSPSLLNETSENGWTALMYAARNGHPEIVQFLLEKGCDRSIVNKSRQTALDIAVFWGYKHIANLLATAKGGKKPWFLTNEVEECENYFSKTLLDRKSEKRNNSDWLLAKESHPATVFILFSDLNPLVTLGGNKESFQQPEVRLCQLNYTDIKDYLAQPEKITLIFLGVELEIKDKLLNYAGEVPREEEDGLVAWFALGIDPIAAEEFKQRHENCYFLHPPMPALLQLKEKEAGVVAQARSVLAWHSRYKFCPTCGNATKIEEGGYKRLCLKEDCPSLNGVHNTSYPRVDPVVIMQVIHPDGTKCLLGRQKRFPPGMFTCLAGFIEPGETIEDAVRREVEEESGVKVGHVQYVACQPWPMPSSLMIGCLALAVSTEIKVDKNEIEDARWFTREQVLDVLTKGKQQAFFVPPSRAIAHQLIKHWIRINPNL
UniProt Q86U38: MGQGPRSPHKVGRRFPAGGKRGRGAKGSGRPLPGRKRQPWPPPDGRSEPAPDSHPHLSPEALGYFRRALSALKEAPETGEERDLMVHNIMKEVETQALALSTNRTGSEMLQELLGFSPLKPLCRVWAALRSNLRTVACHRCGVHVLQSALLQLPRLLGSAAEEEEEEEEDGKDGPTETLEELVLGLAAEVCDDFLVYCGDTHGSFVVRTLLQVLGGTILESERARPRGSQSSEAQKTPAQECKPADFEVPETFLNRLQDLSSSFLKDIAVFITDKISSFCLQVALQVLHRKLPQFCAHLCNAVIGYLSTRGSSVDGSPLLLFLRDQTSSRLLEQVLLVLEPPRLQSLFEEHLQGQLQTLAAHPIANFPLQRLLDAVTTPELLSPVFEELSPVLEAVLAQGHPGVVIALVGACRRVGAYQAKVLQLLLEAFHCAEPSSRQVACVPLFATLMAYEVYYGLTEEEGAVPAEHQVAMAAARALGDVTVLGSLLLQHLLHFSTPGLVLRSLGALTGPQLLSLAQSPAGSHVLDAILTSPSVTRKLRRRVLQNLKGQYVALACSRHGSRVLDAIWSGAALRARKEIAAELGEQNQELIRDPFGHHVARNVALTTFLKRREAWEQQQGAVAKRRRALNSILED
UniProt Q9H0G5: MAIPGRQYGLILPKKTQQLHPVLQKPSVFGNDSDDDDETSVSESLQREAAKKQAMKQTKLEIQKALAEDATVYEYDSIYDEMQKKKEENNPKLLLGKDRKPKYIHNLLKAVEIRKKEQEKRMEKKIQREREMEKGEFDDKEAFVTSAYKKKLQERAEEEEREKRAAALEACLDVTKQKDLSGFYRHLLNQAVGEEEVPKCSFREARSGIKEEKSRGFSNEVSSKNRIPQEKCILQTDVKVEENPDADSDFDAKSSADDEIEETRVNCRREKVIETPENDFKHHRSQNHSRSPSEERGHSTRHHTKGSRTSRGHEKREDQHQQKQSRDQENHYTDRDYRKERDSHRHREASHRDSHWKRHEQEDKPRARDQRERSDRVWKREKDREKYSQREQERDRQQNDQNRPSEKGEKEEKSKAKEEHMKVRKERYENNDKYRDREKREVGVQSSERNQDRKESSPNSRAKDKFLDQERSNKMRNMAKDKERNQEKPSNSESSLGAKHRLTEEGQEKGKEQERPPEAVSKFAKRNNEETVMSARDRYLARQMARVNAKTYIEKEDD
UniProt Q9H857: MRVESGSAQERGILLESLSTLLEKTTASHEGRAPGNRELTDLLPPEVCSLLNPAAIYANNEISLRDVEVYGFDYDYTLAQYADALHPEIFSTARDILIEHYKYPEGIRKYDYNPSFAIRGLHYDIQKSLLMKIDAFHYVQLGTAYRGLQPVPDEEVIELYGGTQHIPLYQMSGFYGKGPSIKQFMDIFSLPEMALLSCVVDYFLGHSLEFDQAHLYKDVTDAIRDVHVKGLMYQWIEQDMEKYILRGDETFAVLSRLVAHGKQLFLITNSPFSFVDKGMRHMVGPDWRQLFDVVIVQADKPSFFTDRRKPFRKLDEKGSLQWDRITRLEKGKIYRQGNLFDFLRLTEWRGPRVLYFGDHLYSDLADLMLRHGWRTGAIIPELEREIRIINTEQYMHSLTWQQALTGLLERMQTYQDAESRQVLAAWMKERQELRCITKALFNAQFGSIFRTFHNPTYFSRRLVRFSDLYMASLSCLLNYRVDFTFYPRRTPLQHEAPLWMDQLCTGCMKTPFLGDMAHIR
UniProt Q14978: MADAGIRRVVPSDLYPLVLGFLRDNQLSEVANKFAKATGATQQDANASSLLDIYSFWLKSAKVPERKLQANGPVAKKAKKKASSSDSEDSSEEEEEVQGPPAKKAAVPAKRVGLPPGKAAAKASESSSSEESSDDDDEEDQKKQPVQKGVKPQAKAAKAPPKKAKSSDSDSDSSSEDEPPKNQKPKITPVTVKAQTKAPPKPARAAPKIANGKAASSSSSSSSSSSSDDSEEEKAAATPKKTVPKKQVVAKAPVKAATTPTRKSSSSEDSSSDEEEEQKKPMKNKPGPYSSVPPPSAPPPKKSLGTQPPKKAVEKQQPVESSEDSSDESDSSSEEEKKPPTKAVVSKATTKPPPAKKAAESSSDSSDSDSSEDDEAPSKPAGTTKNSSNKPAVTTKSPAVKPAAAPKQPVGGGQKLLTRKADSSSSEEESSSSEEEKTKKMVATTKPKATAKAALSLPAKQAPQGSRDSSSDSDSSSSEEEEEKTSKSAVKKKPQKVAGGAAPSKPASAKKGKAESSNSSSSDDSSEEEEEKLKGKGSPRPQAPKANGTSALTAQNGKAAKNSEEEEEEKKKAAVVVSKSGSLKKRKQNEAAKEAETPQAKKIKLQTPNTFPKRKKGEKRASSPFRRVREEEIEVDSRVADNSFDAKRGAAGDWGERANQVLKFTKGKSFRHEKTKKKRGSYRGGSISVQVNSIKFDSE
UniProt Q7Z417: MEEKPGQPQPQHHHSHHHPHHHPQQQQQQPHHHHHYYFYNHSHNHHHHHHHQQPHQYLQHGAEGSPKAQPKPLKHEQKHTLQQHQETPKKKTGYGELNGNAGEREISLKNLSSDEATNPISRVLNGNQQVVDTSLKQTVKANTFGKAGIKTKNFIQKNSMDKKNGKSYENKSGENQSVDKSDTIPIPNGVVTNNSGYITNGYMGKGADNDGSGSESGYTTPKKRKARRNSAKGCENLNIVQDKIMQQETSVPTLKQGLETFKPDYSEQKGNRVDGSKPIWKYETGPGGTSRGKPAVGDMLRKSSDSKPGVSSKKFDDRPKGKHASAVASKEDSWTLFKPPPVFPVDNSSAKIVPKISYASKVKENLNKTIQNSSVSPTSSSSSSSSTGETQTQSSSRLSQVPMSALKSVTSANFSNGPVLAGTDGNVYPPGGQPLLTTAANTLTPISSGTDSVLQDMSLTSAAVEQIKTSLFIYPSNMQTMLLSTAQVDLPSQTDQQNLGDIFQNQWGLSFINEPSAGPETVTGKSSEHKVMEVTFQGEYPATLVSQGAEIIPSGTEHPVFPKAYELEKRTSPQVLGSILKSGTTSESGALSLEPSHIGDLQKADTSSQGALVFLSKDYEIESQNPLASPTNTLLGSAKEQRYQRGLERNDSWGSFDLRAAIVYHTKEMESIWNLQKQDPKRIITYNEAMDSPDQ
UniProt Q9H1E3: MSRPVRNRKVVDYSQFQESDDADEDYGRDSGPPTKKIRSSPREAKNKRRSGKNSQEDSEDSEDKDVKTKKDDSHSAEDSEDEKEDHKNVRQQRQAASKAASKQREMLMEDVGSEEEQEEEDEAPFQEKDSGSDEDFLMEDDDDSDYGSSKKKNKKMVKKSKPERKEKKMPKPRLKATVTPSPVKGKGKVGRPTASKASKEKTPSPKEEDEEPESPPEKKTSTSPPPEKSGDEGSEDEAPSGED
UniProt Q8IVD9: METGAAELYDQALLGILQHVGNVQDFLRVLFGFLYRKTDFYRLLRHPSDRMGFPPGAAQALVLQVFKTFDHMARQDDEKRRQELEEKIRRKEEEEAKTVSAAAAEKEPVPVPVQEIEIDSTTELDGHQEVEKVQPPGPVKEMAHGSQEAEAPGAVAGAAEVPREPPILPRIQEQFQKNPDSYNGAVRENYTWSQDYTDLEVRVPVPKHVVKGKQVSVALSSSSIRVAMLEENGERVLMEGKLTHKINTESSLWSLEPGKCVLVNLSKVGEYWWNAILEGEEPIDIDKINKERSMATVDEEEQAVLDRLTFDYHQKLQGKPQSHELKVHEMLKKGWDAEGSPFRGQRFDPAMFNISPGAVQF
UniProt O00567: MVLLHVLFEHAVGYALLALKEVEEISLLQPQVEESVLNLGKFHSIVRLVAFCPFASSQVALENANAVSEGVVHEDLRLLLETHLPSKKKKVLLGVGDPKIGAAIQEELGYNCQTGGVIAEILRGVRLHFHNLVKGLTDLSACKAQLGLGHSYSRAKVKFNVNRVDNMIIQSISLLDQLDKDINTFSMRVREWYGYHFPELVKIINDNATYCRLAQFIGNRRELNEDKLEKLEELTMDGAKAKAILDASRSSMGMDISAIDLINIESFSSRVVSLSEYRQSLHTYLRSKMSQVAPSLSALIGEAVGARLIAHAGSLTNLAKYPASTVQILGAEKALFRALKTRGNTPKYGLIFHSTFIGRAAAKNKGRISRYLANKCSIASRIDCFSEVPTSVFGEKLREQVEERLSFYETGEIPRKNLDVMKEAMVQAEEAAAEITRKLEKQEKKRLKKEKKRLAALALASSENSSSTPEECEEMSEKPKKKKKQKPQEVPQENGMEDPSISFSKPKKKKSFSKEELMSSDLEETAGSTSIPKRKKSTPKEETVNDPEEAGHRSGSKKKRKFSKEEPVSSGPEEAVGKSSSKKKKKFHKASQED

Key:
Experiment in all cases: log2 fold change, soluble protein after heating vs DMSO (PISA); higher = thermal stabilisation; K562 lysate, 10 uM; active = over 0.2 and 3.5 SD of the protein, either way, in both replicates (recomputed)
nilotinib = compound: Cc1cn(-c2cc(NC(=O)c3ccc(C)c(Nc4nccc(-c5cccnc5)n4)c3)cc(C(F)(F)F)c2)cn1 [nilotinib]
Outline: (§1)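 A 30 min treatment with 10 μM compound was applied to crude K562 extract at 1 mg/mL protein in PBS pH 7.4 with 1 mM MgCl2. Heating for 3 min spanned 48°C-58°C, after which aliquots were pooled, adjusted to 0.5% NP-40 at 4°C and spun at 21,000xg for 90 min. TMTpro 16plex LC-MS/MS of the supernatant, with channel sums equalised, gave values recorded as log-two fold change in thermal stability against solvent controls, from duplicates.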

[1] = compound: Cc1nc(Nc2n[nH]c3c2CN(C(=O)N[C@H](CN(C)C)c2ccccc2)C3(C)C)c2sccc2n1
Outline: as §1

dasatinib = compound: Cc1nc(Nc2ncc(C(=O)Nc3c(C)cccc3Cl)s2)cc(N2CCN(CCO)CC2)n1 [dasatinib]
Outline: as §1

[2] = compound: Cc1ncc(-c2ccnc(Nc3ccc(S(C)(=O)=O)cc3)n2)n1C(C)C
Outline: as §1

[3] = compound: Cn1cc(-c2ccc3c(c2)CCN3C(=O)Cc2cccc(C(F)(F)F)c2)c2c(N)ncnc21
Outline: as §1

quisinostat = compound: Cn1cc(CNCC2CCN(c3ncc(C(=O)NO)cn3)CC2)c2ccccc21 [quisinostat]
Outline: as §1

tipifarnib = compound: Cn1cncc1[C@@](N)(c1ccc(Cl)cc1)c1ccc2c(c1)c(-c1cccc(Cl)c1)cc(=O)n2C [tipifarnib]
Outline: as §1

[4] = compound: NC(=O)Nc1cc(-c2cccc(F)c2)sc1C(=O)N[C@H]1CCCNC1
Outline: as §1

[5] = compound: NC(=O)c1cnc(N[C@@H]2CCCC[C@@H]2N)nc1Nc1cccc(-n2nccn2)c1
Outline: as §1

[6] = compound: NC1(c2ccc(-c3nc4ccn5c(=O)[nH]nc5c4cc3-c3ccccc3)cc2)CCC1
Outline: as §1

NUDT1 (UniProt P36639)
log2 fold change (nilotinib): inactive: -0.034 | log2 fold change [1]: inactive: 0.011 | log2 fold change (dasatinib): inactive: 0.034 | log2 fold change [2]: inactive: -0.01 | log2 fold change [3]: inactive: -0.004 | log2 fold change (quisinostat): inactive: -0.011 | log2 fold change (tipifarnib): inactive: -0.014 | log2 fold change [4]: inactive: -0.002 | log2 fold change [5]: inactive: -0.001 | log2 fold change [6]: inactive: 0.014

NSFL1C isoform 5 (UniProt Q9UNZ2)
log2 fold change (nilotinib): inactive: -0.003 | log2 fold change [1]: inactive: 0.015 | log2 fold change (dasatinib): inactive: 0.043 | log2 fold change [2]: inactive: -0.017 | log2 fold change [3]: inactive: 0.007 | log2 fold change (quisinostat): inactive: 0.028 | log2 fold change (tipifarnib): inactive: 0.008 | log2 fold change [4]: inactive: 0.006 | log2 fold change [5]: inactive: -0.028 | log2 fold change [6]: inactive: 0.017

NOSTRIN (UniProt Q8IVI9)
log2 fold change (nilotinib): inactive: -0.015 | log2 fold change [1]: inactive: -0.02 | log2 fold change (dasatinib): inactive: -0.022 | log2 fold change [2]: inactive: 0.03 | log2 fold change [3]: inactive: 0.01 | log2 fold change (quisinostat): inactive: -0.031 | log2 fold change (tipifarnib): inactive: -0.008 | log2 fold change [4]: inactive: 0.01 | log2 fold change [5]: inactive: -0.018 | log2 fold change [6]: inactive: 0.064

NUCB2 (UniProt P80303)
log2 fold change (nilotinib): inactive: -0.016 | log2 fold change [1]: inactive: 0.015 | log2 fold change (dasatinib): inactive: 0.007 | log2 fold change [2]: inactive: -0.019 | log2 fold change [3]: inactive: -0.009 | log2 fold change (quisinostat): inactive: 0.016 | log2 fold change (tipifarnib): inactive: 0.011 | log2 fold change [4]: inactive: -0.003 | log2 fold change [5]: inactive: -0.001 | log2 fold change [6]: inactive: 0.014

NUDT12 (UniProt Q9BQG2)
log2 fold change (nilotinib): inactive: 0.033 | log2 fold change [1]: inactive: 0.008 | log2 fold change (dasatinib): inactive: 0.043 | log2 fold change [2]: inactive: 0.006 | log2 fold change [3]: inactive: -0.033 | log2 fold change (quisinostat): inactive: -0.068 | log2 fold change (tipifarnib): inactive: -0.014 | log2 fold change [4]: inactive: 0.013 | log2 fold change [5]: inactive: -0.01 | log2 fold change [6]: inactive: -0.009

NOP9 (UniProt Q86U38)
log2 fold change (nilotinib): inactive: 0.009 | log2 fold change [1]: inactive: 0.036 | log2 fold change (dasatinib): inactive: -0.044 | log2 fold change [2]: inactive: -0.035 | log2 fold change [3]: inactive: 0.051 | log2 fold change (quisinostat): inactive: 0.015 | log2 fold change (tipifarnib): inactive: -0.018 | log2 fold change [4]: inactive: 0.027 | log2 fold change [5]: inactive: -0.023 | log2 fold change [6]: inactive: -0.01

NSRP1 (UniProt Q9H0G5)
log2 fold change (nilotinib): inactive: 0.011 | log2 fold change [1]: inactive: 0.023 | log2 fold change (dasatinib): inactive: 0.033 | log2 fold change [2]: inactive: 0.013 | log2 fold change [3]: inactive: -0.023 | log2 fold change (quisinostat): inactive: -0.008 | log2 fold change (tipifarnib): inactive: -0.04 | log2 fold change [4]: inactive: -0.027 | log2 fold change [5]: inactive: -0.02 | log2 fold change [6]: inactive: 0.023

NT5DC2 isoform 2 (UniProt Q9H857)
log2 fold change (nilotinib): inactive: 0.025 | log2 fold change [1]: inactive: -0.041 | log2 fold change (dasatinib): inactive: 0.067 | log2 fold change [2]: inactive: 0.029 | log2 fold change [3]: inactive: -0.027 | log2 fold change (quisinostat): inactive: -0.002 | log2 fold change (tipifarnib): inactive: -0.027 | log2 fold change [4]: inactive: -0.002 | log2 fold change [5]: inactive: 0.06 | log2 fold change [6]: inactive: -0.011

NOLC1 isoform 2 (UniProt Q14978)
log2 fold change (nilotinib): inactive: 0 | log2 fold change [1]: inactive: -0.025 | log2 fold change (dasatinib): inactive: 0.008 | log2 fold change [2]: inactive: -0.007 | log2 fold change [3]: inactive: 0.012 | log2 fold change (quisinostat): inactive: 0.005 | log2 fold change (tipifarnib): inactive: 0.013 | log2 fold change [4]: inactive: -0.039 | log2 fold change [5]: inactive: -0.002 | log2 fold change [6]: inactive: 0.027

NUMBL (UniProt Q9Y6R0)
log2 fold change (nilotinib): inactive: 0.038 | log2 fold change [1]: inactive: -0.013 | log2 fold change (dasatinib): inactive: -0.041 | log2 fold change [2]: inactive: -0.12 | log2 fold change [3]: inactive: 0.219 | log2 fold change (quisinostat): inactive: 0.04 | log2 fold change (tipifarnib): inactive: -0.06 | log2 fold change [4]: active: -0.415 | log2 fold change [5]: inactive: -0.055 | log2 fold change [6]: inactive: -0.046

NNT (UniProt Q13423)
log2 fold change (nilotinib): inactive: -0.017 | log2 fold change [1]: inactive: 0.001 | log2 fold change (dasatinib): inactive: 0.003 | log2 fold change [2]: inactive: 0.002 | log2 fold change [3]: inactive: 0.002 | log2 fold change (quisinostat): inactive: 0.01 | log2 fold change (tipifarnib): inactive: 0.009 | log2 fold change [4]: inactive: -0.021 | log2 fold change [5]: inactive: 0.002 | log2 fold change [6]: inactive: 0.001

NUFIP2 (UniProt Q7Z417)
log2 fold change (nilotinib): inactive: -0.015 | log2 fold change [1]: inactive: 0 | log2 fold change (dasatinib): inactive: 0.001 | log2 fold change [2]: inactive: -0.001 | log2 fold change [3]: inactive: -0.033 | log2 fold change (quisinostat): inactive: -0.029 | log2 fold change (tipifarnib): inactive: -0.018 | log2 fold change [4]: inactive: 0.018 | log2 fold change [5]: inactive: -0.004 | log2 fold change [6]: inactive: -0.001

NUCKS1 (UniProt Q9H1E3)
log2 fold change (nilotinib): inactive: 0.015 | log2 fold change [1]: inactive: -0.005 | log2 fold change (dasatinib): inactive: -0.006 | log2 fold change [2]: inactive: 0.002 | log2 fold change [3]: inactive: -0.075 | log2 fold change (quisinostat): inactive: 0.023 | log2 fold change (tipifarnib): inactive: 0.02 | log2 fold change [4]: inactive: -0.067 | log2 fold change [5]: inactive: -0.005 | log2 fold change [6]: inactive: -0.035

NUDCD3 (UniProt Q8IVD9)
log2 fold change (nilotinib): inactive: -0.008 | log2 fold change [1]: inactive: 0.037 | log2 fold change (dasatinib): inactive: 0.022 | log2 fold change [2]: inactive: -0.02 | log2 fold change [3]: inactive: 0.02 | log2 fold change (quisinostat): inactive: -0.023 | log2 fold change (tipifarnib): inactive: -0.054 | log2 fold change [4]: inactive: 0.002 | log2 fold change [5]: inactive: -0.023 | log2 fold change [6]: inactive: 0.012

NOP56 (UniProt O00567)
log2 fold change (nilotinib): inactive: 0.017 | log2 fold change [1]: inactive: -0.004 | log2 fold change (dasatinib): inactive: -0.007 | log2 fold change [2]: inactive: 0.001 | log2 fold change [3]: inactive: -0.007 | log2 fold change (quisinostat): inactive: 0.015 | log2 fold change (tipifarnib): inactive: -0.009 | log2 fold change [4]: inactive: 0.025 | log2 fold change [5]: inactive: 0 | log2 fold change [6]: inactive: 0.012
